# Measured values from patent US9993536B2, “Peptides and combination of peptides and scaffolds for use in immunotherapy against renal cell carcinoma (RCC) and other cancers” (immatics biotechnologies GmbH, priority 2015, dated 2018).
# For some assays here: Expression values are those of the mRNA of the gene that encodes the peptide; a gene is named only where it was looked up.
# What was measured:
# [1] = system: source genes (mRNA) in RCC and normal tissues; experiment: Expression profiling of genes encoding the peptides (Affymetrix microarray); set-up: species or system human; key: very highly over-expressed in tumors compared to a panel of normal tissues (+++); highly over-expressed in tumors compared to a panel of normal tissues (++); over-expressed in tumors compared to a panel of normal tissues (+); conditions: tumors compared to a panel of normal tissues
# RCC samples = experiment: Label-free relative LC-MS quantitation of HLA-presented peptides (presentation profile/score), RCC vs normal tissues; set-up: species or system human; key: very highly over-presented on tumors compared to a panel of normal tissues (+++); highly over-presented on tumors compared to a panel of normal tissues (++); over-presented on tumors compared to a panel of normal tissues (+); conditions: tumors (RCC) compared to a panel of normal tissues
# [2] = system: tumor samples of other tumor types; experiment: LC-MS detection/over-presentation of peptides on additional tumor types vs normal tissues; set-up: species or system human; conditions: for Additional Entities: additional tumor types: over-presentation on more than 5% of measured tumor samples, or presentation on more than 5% with ratio of geometric means tumor vs normal larger than 3; for Other relevant organs/diseases: additional tumor types: over-presented on more than 5% of measured tumor samples, or presented on more than 5% with ratio of geometric means tumor vs normal tissues larger than 3
Substance,Gene Expression (expression score) [1],Peptide Presentation (presentation score) (RCC samples),Additional Entities [2],Other relevant organs/diseases [2]
50: peptide found in ITGA3 (gene looked up) (SLSDHIVLL; listed as Homo sapiens) [compound 50],+,+,"PC, Melanoma, Esophageal Cancer, Urinary bladder cancer, Gallbladder Cancer, Bile Duct Cancer",Lung
37: peptide found in ABCC3 (gene looked up) (VLAPVILML; listed as Homo sapiens) [compound 37],+,+++,,"Lung, Colon, Rectum, Pancreas, Ovary"
101: peptide found in FLT1 (gene looked up) (HIYDKAFITV; listed as Homo sapiens) [compound 101],++,++,"SCLC, BRCA","Liver, Ovary"
87: peptide found in APOL1 (gene looked up) (LADGVQKV; listed as Homo sapiens) [compound 87],++,,,"Breast, Melanoma"
94: peptide found in CYB5A (gene looked up) (ILHHKVYDL; listed as Homo sapiens) [compound 94],+,+,,Liver
18: peptide found in ACLY (gene looked up) (YVLDLAAKV; listed as Homo sapiens) [compound 18],+,+++,"SCLC, CLL, BRCA, Melanoma, Uterine Cancer, NHL",
65: peptide found in TPI1 (gene looked up) (IIYGGSVTGA; listed as Homo sapiens) [compound 65],+,,"CLL, Melanoma, Urinary bladder cancer, Uterine Cancer",Breast
63: peptide found in ERAP1 (gene looked up) (GLIEDHFDVTV; listed as Homo sapiens) [compound 63],+,,SCLC,"Lung, Colon, Rectum, Prostate, Leukocytes, Melanoma, Ovary"
51: peptide found in ITGA3 (gene looked up) (NLWPMILTL; listed as Homo sapiens) [compound 51],+,+++,"Melanoma, Uterine Cancer, Gallbladder Cancer, Bile Duct Cancer, Esophageal Cancer","Lung, Pancreas, Esophagus"
131: peptide found in PLIN2 (gene looked up) (VMAGDIYSV; listed as Homo sapiens) [compound 131],+,++,,"Lung, Liver, Pancreas, Esophagus"
139: peptide found in ACLY (gene looked up) (ILNVDGLIGV; listed as Homo sapiens) [compound 139],+,++,,"Brain, Colon, Rectum, Liver, Prostate"
79 (ALADIVWRA; listed as Homo sapiens) [compound 79],,+,,"Lung, Brain, Colon, Rectum, Liver, Pancreas, Prostate, Ovary, Esophagus"
114 (ALAVNISAA; listed as Homo sapiens) [compound 114],,++,"GC, CRC, CLL, BRCA, Melanoma, Urinary bladder cancer, Uterine Cancer, Gallbladder Cancer, Bile Duct Cancer, AML, NHL, PC","Lung, Brain, Liver, Pancreas, Esophagus"
134 (VADKIHSV; listed as Homo sapiens) [compound 134],,+++,,"Stomach, Pancreas, Esophagus"
26 (SLMEILYTL; listed as Homo sapiens) [compound 26],,+++,"Melanoma, Gallbladder Cancer, Bile Duct Cancer, AML, OC, SCLC","Colon, Rectum, Pancreas, Prostate, Ovary"
113 (SLFDWNVKL; listed as Homo sapiens) [compound 113],,++,"SCLC, BRCA, Esophageal Cancer, Gallbladder Cancer, Bile Duct Cancer, AML, NHL","Liver, Prostate"
110 (LLDLHSYLL; listed as Homo sapiens) [compound 110],,+,Uterine Cancer,"Stomach, Leukocytes"

Substance,Gene Expression (expression score) [1],Peptide Presentation (presentation score) (RCC samples),Additional Entities [2],Other relevant organs/diseases [2]
7: peptide found in EGLN3 (gene looked up) (FLLSLIDRL; listed as Homo sapiens) [compound 7],++,+++,,
20 (AVANTTFTV; listed as Homo sapiens) [compound 20],,+++,"Esophageal Cancer, Urinary bladder cancer, Uterine Cancer",
138 (SLDTLMTYV; listed as Homo sapiens) [compound 138],,++,,"Lung, Brain, Colon, Rectum, Pancreas, Prostate, Leukocytes, Esophagus"
23 (YIQEVVQYI; listed as Homo sapiens) [compound 23],,+++,,Liver
24 (FTLGTTVFL; listed as Homo sapiens) [compound 24],,++,"Melanoma, Uterine Cancer, NHL","Liver, Prostate, Leukocytes, Esophagus"
52 (SILDAVQRV; listed as Homo sapiens) [compound 52],,+++,"SCLC, BRCA, Melanoma, Uterine Cancer","Lung, Brain, Pancreas, Ovary"
127 (VLAPLFVYL; listed as Homo sapiens) [compound 127],,++,,"Lung, Pancreas, Breast, Melanoma"
17 (ILAQQVHAL; listed as Homo sapiens) [compound 17],,+++,Uterine Cancer,
56 (ILMDFSNSM; listed as Homo sapiens) [compound 56],,+,"Urinary bladder cancer, Gallbladder Cancer, Bile Duct Cancer",Pancreas
68 (YVLTQPPSV; listed as Homo sapiens) [compound 68],,+++,BRCA,"Lung, Pancreas, Leukocytes, Esophagus"
78 (ALLDTVVQA; listed as Homo sapiens) [compound 78],,+,BRCA,"Liver, Prostate"
125 (KLDPTKTTL; listed as Homo sapiens) [compound 125],,+++,,Prostate
120: peptide found in SLC22A2 (gene looked up) (GLAGDNIYL; listed as Homo sapiens) [compound 120],+,+++,,
86 (GLLQGKLALL; listed as Homo sapiens) [compound 86],,+,"Uterine Cancer, NHL","Liver, Melanoma"
143 (ALFVRLLALA; listed as Homo sapiens) [compound 143],,++,,"Lung, Brain, Stomach, Colon, Rectum, Liver, Melanoma, Esophagus"
10 (KLLQNNYGL; listed as Homo sapiens) [compound 10],,+,"BRCA, Gallbladder Cancer, Bile Duct Cancer",
67 (LLDVLAPLV; listed as Homo sapiens) [compound 67],,+,"CRC, Melanoma, Urinary bladder cancer, Uterine Cancer, Gallbladder Cancer, Bile Duct Cancer","Lung, Stomach, Liver, Pancreas, Breast, Esophagus"
